Test results reported in PubChem BioAssay AID624297 (National Center for Advancing Translational Sciences (NCATS), 2012).
Out of some 340,000 compounds screened, about 6,200 (1.8%) were called active. The shares of active, inactive and inconclusive entries below differ from those in the screen. Calls follow the shape of the dose curve; as a rule, active = well fitted activation curve with a large enough effect; inconclusive = small, poorly fitted or top-dose-only effect; inactive = no such curve, though single readings can be large or run the other way. Where the call is inconclusive, the potency comes from a doubtful curve fit.
Potency is read from the fitted curve at half-maximal effect.

Assay: A quantitative high throughput screen for small molecules that induce DNA re-replication in SW480 colon adenocarcinoma cells. Also: nearly all actives have a fitted effect of over 55% in size. As to re-replication activation: % of control where 0% means no effect.
Settings: Hoechst DNA content imaging, 48 h; re-replication activation: at 46.1 µM (top of the series) unless noted
Outline: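 Image-based read-out: total Hoechst fluorescence of nuclei (405 nm excitation, 500-530 nm emission), with hits raising the fraction of high-intensity nuclei. SW480 colon cells incubated 48 hr with compounds at 37 C.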
In the case of O=C(NC1CCCC1)C(c1ccc(F)cc1)N(Cc1ccccc1Cl)C(=O)CCl (stereo not given), the Potency is reported as inconclusive: 29.1 µM [activator, single point].
With O=C(NCc1ccccn1)c1ccc2nc(C3CCCCC3)oc2c1 the Potency was inconclusive: 0.092 µM [activator, full curve, poor fit].
With CNC(=O)N(O)C1N(/N=C/c2ccc(C)cc2)C(=S)SC1(C)C (stereo not given) the Potency was inconclusive: 0.461 µM [activator, full curve, poor fit].
With COCCn1c(SCC(=O)Nc2ccc3c(c2)OCCO3)nc2c(c1=O)SC(C)C2 (stereo not given) the “re-replication activation” value was inactive: -1.64%.
For CC1CC(C)CN(C(=O)/C=C/c2ccc([N+](=O)[O-])s2)C1 (stereo not given), the Potency was inconclusive: 29.1 µM [activator, single point].
For CCCCn1c(N)c(N(CCOC)C(=O)CCS(=O)(=O)c2ccc(Cl)cc2)c(=O)[nH]c1=O, the “re-replication activation” value was inactive: -3.43%.
For CC(/C=C1\SC(=S)N(CCCC(=O)Nc2ccc(C(=O)O)c(O)c2)C1=O)=C\c1ccccc1, the Potency was inconclusive: 6.51 µM [activator, single point].
For CCOC(=O)Cc1csc(NC(=O)CCN2C(=O)c3cccc([N+](=O)[O-])c3C2=O)n1, the “re-replication activation” value was inactive: -4.49%.
With Cc1ccc(-n2nnnc2-c2cccc(C)c2)cc1 the “re-replication activation” value was inactive: 0.523%.
With COc1ccc(C2N(C(=O)N(C)C)CCN2S(=O)(=O)c2ccc(OC)cc2)cc1 (stereo not given) the “re-replication activation” value was inactive: -0.335%.
For c1ccc(OCCOCCOc2ccccc2)cc1, the “re-replication activation” value was inactive: -0.272%.
With COc1ccc(CCCC(=O)NCc2ccccc2)cc1C the Potency was inconclusive: 16.4 µM [activator, single point].
For O=C1CCC(C(=O)N2CCN(c3cnccn3)CC2)CN1CCc1cccc(F)c1 (stereo not given), the Potency was inconclusive: 29.1 µM [activator, single point].
In the case of CC1CCCC(NC(=O)CNC(=O)c2cccs2)C1C (stereo not given), the Potency is reported as inconclusive: 18.4 µM [activator, single point].
For O=C(NCCC1=CCCCC1)C(=O)NCC(c1ccco1)N1CCN(c2ccc(F)cc2)CC1 (stereo not given), the “re-replication activation” value was inactive: -100%.
For O=C(NC1CCN(C(=O)Nc2ccc(F)cc2)CC1)c1ccc(F)cc1, the Potency was inconclusive: 23.1 µM [activator, single point].
With C(=C\c1ccco1)/C1=NN(c2ccccc2)C(c2ccco2)C1 (stereo not given) the Potency was active: 2.31 µM.
In the case of O=C1COc2ccc(S(=O)(=O)N3CCN(c4cccc(C(F)(F)F)c4)CC3)cc2N1, the Potency is reported as inconclusive: 2.06 µM [activator, single point].
In the case of Cc1c(C2=CCN(S(=O)(=O)c3ccc(Br)cc3)CC2)c2ccccc2n1C, the Potency is reported as inconclusive: 32.6 µM [activator, partial curve, poor fit].
With Cc1nn(-c2ccccc2)c(Cl)c1/C=C/C(=O)c1ccccc1 the Potency was inconclusive: 29.1 µM [activator, single point].
For O=C(NNC(=O)c1ccccc1F)C1=NN(c2ccccc2)C(=O)CC1, the Potency was inconclusive: 29.1 µM [activator, single point].
With Cc1ccc2c(c1)Oc1ccc([N+](=O)[O-])cc1C(=O)N2 the “re-replication activation” value was inactive: -0.274%.
With Cc1c(C(=O)Nc2nccs2)sc2nc(-c3cccs3)cc(C(F)(F)F)c12 the Potency was inconclusive: 23.1 µM [activator, single point].
For CC(=NCCc1c(C)[nH]c2ccc(OC(F)(F)F)cc12)C1=C(O)CC(c2ccccc2)CC1=O (stereo not given), the Potency was active: 8.2 µM.
In the case of CC(C)CCOc1ccc(C(=O)NCC(c2ccco2)N(C)C)cc1 (stereo not given), the Potency is reported as inconclusive: 29.1 µM [activator, partial curve, poor fit].
For Cc1ccc(C(=O)N/C(=C\c2ccc(Cl)cc2)C(=O)NCCCN2CCOCC2)cc1, the “re-replication activation” value was inactive: 4.71%.
For Cn1cc([N+](=O)[O-])c(C(=O)Nc2sc3c(c2C#N)CCC3)n1, the Potency was inconclusive: 3.26 µM [activator, full curve].
For Cc1cc(C(=O)NNC(=O)/C=C/c2ccco2)c(C)o1, the Potency was inconclusive: 14.6 µM [activator, partial curve, poor fit].
For O=C1CSC(=S)N1N=Cc1c(O)ccc2ccccc12, the Potency was inconclusive: 29.1 µM [activator, partial curve, poor fit].
For O=S(=O)(N(Cc1ccccc1)[C@@H](CO)Cc1ccccc1)N(Cc1ccccc1)[C@@H](CO)Cc1ccccc1, the “re-replication activation” value was inactive: -9.17%.
For CCOC(=O)C1CCN(S(=O)(=O)c2csc(C(N)=O)c2)CC1, the Potency was inconclusive: 4.61 µM [activator, full curve, poor fit].
For O=C(Cn1cnc2ccccc21)N/N=C/C(Br)=C/c1ccccc1, the Potency was inconclusive: 29.1 µM [activator, single point].
With Cc1cc(C)c2nc(N3CCCC(C(=O)NC4CCCC4)C3)sc2c1 (stereo not given) the “re-replication activation” value was inactive: -8.35%.
In the case of NS(=O)(=O)c1ccc(NC(=O)c2ccc(Cl)c(S(=O)(=O)NCc3ccco3)c2)cc1, the Potency is reported as inconclusive: 29.1 µM [activator, single point].
With CCOc1ccccc1NC(=O)CSc1ccc(-c2sc(C)nc2C)nn1 the “re-replication activation” value was inactive: -17.3%.
For O=C(/C=C/N1CCOCC1)c1ccc(-c2ccccc2)cc1, the Potency was active: 14.6 µM.
For COc1ccc(C(=O)Oc2cc(N)n(S(=O)(=O)c3ccc(C)cc3)n2)cc1, the “re-replication activation” value was inactive: -10.9%.
For CCOC(=O)c1sc(N2C(=O)C(O)=C(C(=O)c3ccco3)C2c2cccc([N+](=O)[O-])c2)nc1C (stereo not given), the Potency was inconclusive: 29.1 µM [activator, partial curve, poor fit].
In the case of CCOc1ccc(CN(C)C(=O)CNC(=O)c2cc(OC)c(OC)c(OC)c2)cc1, the Potency is reported as inconclusive: 29.1 µM [activator, single point].
In the case of N#Cc1cc(O)c(-n2nnc3ccccc32)cc1C#N, the “re-replication activation” value is reported as inactive: -12.4%.
In the case of CCCCS/C(N)=N/N=C/c1ccccc1O, the Potency is reported as inconclusive: 29.1 µM [activator, single point].
For CCC(C)c1nc2c(c(N3CCC3=O)c1-c1ccccc1)CCCC2 (stereo not given), the “re-replication activation” value was inactive: 0.413%.
With CCNC(=O)COC(=O)/C=C/c1cccc([N+](=O)[O-])c1 the Potency was inconclusive: 0.731 µM [activator, full curve, poor fit].
With CN(C)c1ccc(-c2nc3ccccn3c2/N=C/c2ccc(Br)cc2)cc1 the Potency was inconclusive: 6.51 µM [activator, single point].
In the case of COc1cc2c(cc1OC)-c1c(OC)c(OC)cc3ccnc(c13)C2=O, the Potency is reported as inconclusive: 5.17 µM [activator, full curve].
In the case of CSc1cccc(NC(=O)c2ccc(CN3CCc4ccccc4C3)cc2)c1, the Potency is reported as inconclusive: 29.1 µM [activator, single point].
For CCOc1ccccc1NC(=O)CSc1nc2cc(O)ccc2c(=O)n1-c1ccc(OC)c(OC)c1, the Potency was inconclusive: 13 µM [activator, partial curve, poor fit].
With Cc1csc2nc(CNC(=O)C3CC=CCC3C(=O)O)cn12 (stereo not given) the Potency was inconclusive: 6.51 µM [activator, partial curve, poor fit].
With COc1ccc(NC(=O)CSc2cc(C)nc3c(-c4ccccc4)cnn23)cc1 the Potency was inconclusive: 29.1 µM [activator, single point].
In the case of S=C(NCCCNC(=S)Nc1ccccc1)Nc1ccccc1, the Potency is reported as inconclusive: 6.51 µM [activator, partial curve, poor fit].
In the case of CC(O)CCCCn1c(=O)c2c(ncn2C)n(C)c1=O (stereo not given), the “re-replication activation” value is reported as inactive: -2.74%.
With COc1ccccc1-n1c(CNC(=O)c2ccc(S(=O)(=O)N3CCCCC3)cc2)n[nH]c1=S the “re-replication activation” value was inactive: -2.75%.
With O=C(CN1CCN(S(=O)(=O)c2ccccc2)CC1)Nc1ccc([N+](=O)[O-])cc1 the “re-replication activation” value was inactive: 14.1%.
For COc1ccc([N+](=O)[O-])cc1/C=N/NC(=O)/C(=C\c1cccs1)NC(=O)c1ccccc1, the Potency was inconclusive: 29.1 µM [activator, single point].
With O=C(CCSc1ccc(Cl)c(Cl)c1)NC12CC3CC(CC(C3)C1)C2 the Potency was inconclusive: 23.1 µM [activator, single point].
In the case of NS(=O)(=O)c1ccc(NC(=S)N2CCN(c3ccc(Cl)c(Cl)c3)CC2)cc1, the Potency is reported as inconclusive: 0.0041 µM [activator, full curve, poor fit].
For CCn1cc(C(=O)NCc2ccc(C)cc2)c(=O)c2cc(S(=O)(=O)N(C)C)ccc21, the “re-replication activation” value was inactive: -33.6%.
With COc1cccc(N2CCN(C(=O)c3ccc(CS(=O)c4ccc(C)cc4)o3)CC2)c1 (stereo not given) the Potency was inconclusive: 4.61 µM [activator, partial curve, poor fit].
In the case of COc1cccc(N2CCN(C3C4CC5CC(C4)CC3C5)CC2)c1 (stereo not given), the “re-replication activation” value is reported as inactive: -4.29%.
In the case of CC(=O)c1csc(-c2cccc(-c3nc4ccc(Cl)cn4c3NC3CCCCC3)c2)c1, the Potency is reported as inconclusive: 20.6 µM [activator, single point].
For O=C1C=C(NCc2ccc3c(c2)OCO3)CC(c2ccccc2)C1 (stereo not given), the Potency was inconclusive: 16.4 µM [activator, partial curve, poor fit].
In the case of CC(C)CC(=O)N1CCN(c2ccc([N+](=O)[O-])cc2Cl)CC1, the “re-replication activation” value is reported as inactive: -2%.
In the case of Cc1ccc(CNCCC2=CCCCC2)cc1, the Potency is reported as inconclusive: 29.1 µM [activator, single point].
For CCCCNC(=O)CCn1nc(-c2ccc(C)cc2)c2ccccc2c1=O, the “re-replication activation” value was inactive: -2.01%.
For Nc1cc(SCc2ccc(Cl)cc2Cl)ncn1, the “re-replication activation” value was inactive: -20.4%.
For Cn1cccc1CC(=O)N/N=C/c1ccco1, the Potency was inconclusive: 29.1 µM [activator, single point].
In the case of O=CC1=C(N2CCOCC2)/C(=C/c2ccc(Cl)cc2)CC1, the “re-replication activation” value is reported as inactive: -32.3%.
With Cc1cccn2c(=O)c(/C=N/O)c(NCc3ccccc3)nc12 the Potency was inconclusive: 20.6 µM [activator, single point].
For O=C(NCCc1c[nH]c2ccccc12)c1cccc(S(=O)(=O)Nc2ccccc2Cl)c1, the “re-replication activation” value was inactive: -29%.
In the case of CC(C1CC2CCC1C2)n1c(-c2ccco2)n[nH]c1=S (stereo not given), the “re-replication activation” value is reported as inactive: -4.24%.
